In PMC8544208:
These are yes or no findings as the source states them, for the method shown.

Amino acid sequences for entries named in this document (tags omitted). A change or cut given only in a name is not applied to a line headed by its entry. Residues count along the entry.
UniProt P01031: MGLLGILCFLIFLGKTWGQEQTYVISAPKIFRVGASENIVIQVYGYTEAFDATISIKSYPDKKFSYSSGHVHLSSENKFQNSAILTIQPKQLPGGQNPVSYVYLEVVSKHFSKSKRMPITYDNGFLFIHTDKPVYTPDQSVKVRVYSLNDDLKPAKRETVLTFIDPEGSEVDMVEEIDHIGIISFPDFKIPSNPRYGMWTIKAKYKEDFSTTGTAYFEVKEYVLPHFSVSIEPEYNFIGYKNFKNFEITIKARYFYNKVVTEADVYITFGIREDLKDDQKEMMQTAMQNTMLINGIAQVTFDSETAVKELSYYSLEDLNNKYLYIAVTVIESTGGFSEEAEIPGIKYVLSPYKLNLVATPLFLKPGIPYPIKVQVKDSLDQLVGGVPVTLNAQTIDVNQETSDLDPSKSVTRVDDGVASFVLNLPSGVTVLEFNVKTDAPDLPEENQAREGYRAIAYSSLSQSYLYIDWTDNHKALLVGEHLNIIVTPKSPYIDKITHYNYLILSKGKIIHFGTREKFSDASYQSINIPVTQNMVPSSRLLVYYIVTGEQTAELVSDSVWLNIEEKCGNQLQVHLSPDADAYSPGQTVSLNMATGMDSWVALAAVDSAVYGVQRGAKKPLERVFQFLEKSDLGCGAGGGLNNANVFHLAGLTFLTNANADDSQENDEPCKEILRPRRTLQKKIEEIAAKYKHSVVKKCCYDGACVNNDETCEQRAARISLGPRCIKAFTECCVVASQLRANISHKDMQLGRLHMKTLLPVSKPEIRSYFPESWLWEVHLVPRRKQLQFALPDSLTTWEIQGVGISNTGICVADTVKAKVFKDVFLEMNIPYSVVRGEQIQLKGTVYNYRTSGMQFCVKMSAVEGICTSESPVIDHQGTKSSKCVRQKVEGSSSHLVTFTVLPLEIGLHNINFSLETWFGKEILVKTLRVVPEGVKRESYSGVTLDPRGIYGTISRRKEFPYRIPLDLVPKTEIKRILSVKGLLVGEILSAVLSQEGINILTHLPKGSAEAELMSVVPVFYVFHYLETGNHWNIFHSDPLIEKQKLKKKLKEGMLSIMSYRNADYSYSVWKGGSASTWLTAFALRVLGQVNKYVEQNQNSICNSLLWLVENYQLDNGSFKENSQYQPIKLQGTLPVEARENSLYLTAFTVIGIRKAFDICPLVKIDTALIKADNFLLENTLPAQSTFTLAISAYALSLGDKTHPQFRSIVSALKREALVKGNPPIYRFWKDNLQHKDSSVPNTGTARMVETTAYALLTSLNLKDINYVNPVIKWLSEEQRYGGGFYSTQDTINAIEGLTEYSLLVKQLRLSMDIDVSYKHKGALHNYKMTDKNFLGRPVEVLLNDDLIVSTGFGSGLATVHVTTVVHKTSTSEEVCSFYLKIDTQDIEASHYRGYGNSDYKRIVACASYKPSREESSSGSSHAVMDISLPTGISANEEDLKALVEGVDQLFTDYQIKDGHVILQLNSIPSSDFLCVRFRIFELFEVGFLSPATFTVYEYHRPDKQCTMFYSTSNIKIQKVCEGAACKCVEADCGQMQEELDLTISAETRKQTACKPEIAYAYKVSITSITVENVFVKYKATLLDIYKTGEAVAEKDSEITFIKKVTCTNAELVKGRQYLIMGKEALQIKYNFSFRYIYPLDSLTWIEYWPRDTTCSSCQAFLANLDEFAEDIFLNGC
UniProt P10643, residues 23-843: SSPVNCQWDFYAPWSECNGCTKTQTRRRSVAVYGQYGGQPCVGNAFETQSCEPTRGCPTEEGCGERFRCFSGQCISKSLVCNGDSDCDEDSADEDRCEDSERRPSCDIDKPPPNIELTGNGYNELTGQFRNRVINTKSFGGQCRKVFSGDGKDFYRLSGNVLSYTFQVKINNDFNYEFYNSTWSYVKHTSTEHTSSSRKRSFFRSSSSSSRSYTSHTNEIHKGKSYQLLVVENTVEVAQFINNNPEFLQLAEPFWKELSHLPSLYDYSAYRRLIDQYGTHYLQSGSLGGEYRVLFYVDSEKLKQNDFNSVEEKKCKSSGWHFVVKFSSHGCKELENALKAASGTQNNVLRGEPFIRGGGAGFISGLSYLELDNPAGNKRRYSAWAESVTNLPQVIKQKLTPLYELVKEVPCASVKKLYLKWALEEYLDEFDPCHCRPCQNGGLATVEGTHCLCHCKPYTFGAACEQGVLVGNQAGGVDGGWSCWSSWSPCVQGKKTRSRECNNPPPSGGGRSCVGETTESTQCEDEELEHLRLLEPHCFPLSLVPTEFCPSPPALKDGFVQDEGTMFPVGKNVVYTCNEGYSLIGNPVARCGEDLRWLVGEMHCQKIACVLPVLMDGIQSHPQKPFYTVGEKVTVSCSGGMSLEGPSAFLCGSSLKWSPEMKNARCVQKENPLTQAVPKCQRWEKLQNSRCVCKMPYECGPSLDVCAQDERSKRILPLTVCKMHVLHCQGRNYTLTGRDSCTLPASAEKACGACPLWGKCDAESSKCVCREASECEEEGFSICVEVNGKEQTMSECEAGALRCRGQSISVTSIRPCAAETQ
UniProt P07357: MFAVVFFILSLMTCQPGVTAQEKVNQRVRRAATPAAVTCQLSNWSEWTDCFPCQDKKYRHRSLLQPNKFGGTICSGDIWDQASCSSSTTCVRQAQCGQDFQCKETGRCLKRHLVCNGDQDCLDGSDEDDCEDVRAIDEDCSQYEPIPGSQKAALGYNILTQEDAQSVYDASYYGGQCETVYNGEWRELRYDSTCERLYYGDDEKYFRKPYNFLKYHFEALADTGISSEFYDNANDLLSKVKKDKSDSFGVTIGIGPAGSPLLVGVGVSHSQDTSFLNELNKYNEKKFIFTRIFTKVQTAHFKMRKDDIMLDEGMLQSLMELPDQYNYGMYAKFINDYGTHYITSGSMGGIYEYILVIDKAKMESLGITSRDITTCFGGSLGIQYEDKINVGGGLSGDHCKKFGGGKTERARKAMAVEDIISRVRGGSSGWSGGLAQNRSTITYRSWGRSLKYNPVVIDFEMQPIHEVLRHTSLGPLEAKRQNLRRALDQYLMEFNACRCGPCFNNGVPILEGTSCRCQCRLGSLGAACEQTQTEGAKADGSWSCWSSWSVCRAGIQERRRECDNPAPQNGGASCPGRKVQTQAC
UniProt P02748, residues 22-559: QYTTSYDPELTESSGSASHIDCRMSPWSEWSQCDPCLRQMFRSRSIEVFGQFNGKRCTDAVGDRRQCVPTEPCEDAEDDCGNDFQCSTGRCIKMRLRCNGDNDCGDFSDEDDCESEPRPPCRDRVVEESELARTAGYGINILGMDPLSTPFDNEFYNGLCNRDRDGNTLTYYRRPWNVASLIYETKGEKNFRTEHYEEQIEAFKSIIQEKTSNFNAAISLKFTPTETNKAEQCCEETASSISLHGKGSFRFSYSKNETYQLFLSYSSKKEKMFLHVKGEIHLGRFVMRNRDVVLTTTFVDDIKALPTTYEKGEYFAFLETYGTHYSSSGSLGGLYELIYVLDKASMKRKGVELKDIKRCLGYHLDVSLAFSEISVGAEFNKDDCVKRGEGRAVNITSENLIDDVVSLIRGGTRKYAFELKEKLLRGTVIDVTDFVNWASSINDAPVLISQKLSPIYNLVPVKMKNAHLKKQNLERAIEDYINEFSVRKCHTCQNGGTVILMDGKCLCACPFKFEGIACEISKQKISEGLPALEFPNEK

Key:
Complement C5 = Complement C5 (UniProt P01031); experiment: SPR; MAC assembly assay, Biacore 8K, HBS-EP+; anti-C5 antibody amine coupled to a CM5 chip, C5 or C5b6 captured at 4 nM; C7, C8 and C9 flowed over in succession at 4, 8 and 50 nM, also with single components left out; both purified
[1] = molecular target: C5b6 with bound C7, assembled on the SPR chip (UniProt P01031); experiment: as above

| Substance | binding (Complement C5) | binding [1] |
| --- | --- | --- |
| Complement C7 (from UniProt P10643 23-843) | no binding (tested: 4 nM) |  |
| Complement C8 (from UniProt P07357 31-584; P07358 55-591; P07360 21-202) | no binding (tested: 8 nM) |  |
| Complement C9 (from UniProt P02748 22-559) | no binding (tested: 50 nM) | no binding (tested: 50 nM) |
